# Test results from PubChem BioAssay AID540256 (National Center for Advancing Translational Sciences (NCATS), 2011).
# The campaign covered roughly 300,000 compounds. About 3,700 (1.2%) were called active. Inconclusive means that the source gave no clear call. Such entries were picked first, then a sample of the others. The call rests on the fitted dose curve; tested in HEK293 cells. Where the call is inconclusive, the potency comes from a doubtful curve fit.
# Test: qHTS for Inhibitors of binding or entry into cells for Lassa Virus; further: nearly all actives have a fitted effect of over 50% in size
# Details: Lassa virus pseudotype entry inhibition, cell reporter; activity change, negative = inhibition: at 37.9 µM (top of the series) unless noted
# On the % scale 0 is the no-effect control and ±100 the full control effect; potency means the concentration at half of the fitted maximal effect.
SMILES,Potency,"activity change, negative = inhibition"
O=c1c2ccccc2nc(-c2ccccc2)n1CCCN1CCOCC1,"inconclusive: 4.61 µM [inhibitor, partial curve, poor fit]",
Cc1cc(C)n(-c2ccc(C(=O)Nc3ccc(S(=O)(=O)N(C)C)cc3)cc2)n1,"inconclusive: 28.2 µM [inhibitor, single point]",
COc1cc(NC(=O)C2CC(=O)N(Cc3ccco3)C2)cc(OC)c1 (stereo unspecified),,inactive: 18.8%
CCc1ccc2oc(-c3cc(N=Cc4cccc(OC)c4O)ccc3O)nc2c1,active: 6.51 µM,
Fc1ccc(CNCCCSc2nnnn2-c2ccccc2)cc1,"inconclusive: 6.31 µM [inhibitor, single point]",
COc1ccc(Cn2c(C(=O)O)c(CNCc3ccc(OC)cc3OC)c3ccc(C)cc32)cc1,,inactive: 0.25% [at 46.1 µM]
Cc1ccc(NC(=O)c2ccc(NCCN)c([N+](=O)[O-])c2)cc1,"inconclusive: 10 µM [activator, partial curve]",
O=C(C=Cc1ccccc1)N1CCC[C@H]1CO,"inconclusive: 0.944 µM [activator, single point]",
COc1ccc2[nH]cc(CCNC(=O)Cc3ccc(Cl)cc3)c2c1,"inconclusive: 0.562 µM [inhibitor, full curve, poor fit]",
CCOc1ccccc1NS(=O)(=O)c1csc(C(N)=O)c1,"inconclusive: 6.31 µM [inhibitor, single point]",
Cc1cc(C)c2c(c1)C1C=CCC1C(c1ccc(S(=O)(=O)N3CCOCC3)cc1)N2 (stereo unspecified),"inconclusive: 20.6 µM [inhibitor, single point]",
CCN1C(=NCC(C)C)N[C@H](c2ccccc2)[C@H](C(=O)OC)[C@H]1C,,inactive: -13.6% [at 14.3 µM]
CCC(Sc1nc2nccnc2c(=O)n1Cc1ccccc1Cl)C(=O)NC1CCCCC1 (stereo unspecified),,inactive: -0.188% [at 46.1 µM]
Cc1nn(-c2cc(N3CCCC3)ccc2[N+](=O)[O-])c(=O)c2ccccc12,"inconclusive: 35.5 µM [inhibitor, single point]",
CCNC(=O)CCCN1C(=O)CCn2nc(-c3cccn3C)cc21,,inactive: 25.5% [at 46.1 µM]
COc1ccc(C(=O)N2CCCC(CO)(Cc3ccccc3C)C2)o1 (stereo unspecified),,inactive: -4.21%
NC(=O)c1ccc(NC(=O)CNC(c2ccccc2)c2ccccc2)cc1,"inconclusive: 28.2 µM [inhibitor, single point]",
COc1ccc(N(C(=O)c2ccco2)C(C(=O)NC2CCCCC2)c2cccs2)cc1OC (stereo unspecified),"inconclusive: 17.8 µM [inhibitor, single point]",
CCn1c(=O)c2cc(C(=O)Nc3cccc(C(F)(F)F)c3)sc2c2ccccc21,"inconclusive: 35.5 µM [activator, single point]",
COc1ccc(NC(=O)[C@@H]2CCCN2C(=O)[C@@H]2Cc3ccccc3CN2C(=O)OC(C)(C)C)cc1,"inconclusive: 10 µM [inhibitor, partial curve, poor fit]",
COc1ccc(NC(=O)c2c(NCc3ccc(C)o3)sc3c2CCCCC3)c(OC)c1,"inconclusive: 35.5 µM [inhibitor, single point]",
COc1ccccc1NC(=O)CSc1nc2n[nH]c(C)c2c(=N)n1-c1ccccc1Cl,"inconclusive: 23.1 µM [inhibitor, single point]",
Cc1ccc(O)cc1Nc1ccnc2ccc(S(C)(=O)=O)cc12,"inconclusive: 2.81 µM [inhibitor, full curve, poor fit]",
CCOc1ccc2c(c1)C(c1ccccc1)=NNC(c1ccccc1)=N2,,inactive: 19.6%

# Among those listed so far, 2 have a nitro group on carbon.
SMILES,Potency,"activity change, negative = inhibition"
Cc1ccc(NC(=O)c2ccc(NCCN)c([N+](=O)[O-])c2)cc1,"inconclusive: 10 µM [activator, partial curve]",
Cc1nn(-c2cc(N3CCCC3)ccc2[N+](=O)[O-])c(=O)c2ccccc12,"inconclusive: 35.5 µM [inhibitor, single point]",

# The results go on:

SMILES,Potency,"activity change, negative = inhibition"
O=C(NCCc1ccccc1)c1ccc([N+](=O)[O-])cc1,"inconclusive: 10 µM [inhibitor, partial curve, poor fit]",
COc1cccc(/C=N/NC(=S)Nc2cccc(C(=O)O)c2)c1O,active: 5.8 µM,
O=C(c1[nH]ncc1-c1ccc(Cl)cc1)C1CO1 (stereo unspecified),"inconclusive: 8.91 µM [inhibitor, partial curve, poor fit]",
CN=c1scc(-c2ccc(F)cc2)n1/N=C/c1ccc(O)c(O)c1,"inconclusive: 7.08 µM [inhibitor, full curve, poor fit]",
CO/N=C/NC(=O)Cc1cn(-c2ncc(C(F)(F)F)cc2Cl)c2ccccc12,"inconclusive: 17.8 µM [inhibitor, single point]",
O=C1C(Cl)=C(Nc2ccc(F)cc2)C(=O)N1CCc1ccccc1,,inactive: 21.3%
CCOC(=O)CS(=O)(=O)c1ccc2ccccc2c1,,inactive: 0%
Cc1cc(C)cc(-n2ccn(CC(=O)NCCc3ccccc3)c(=O)c2=O)c1,inactive,
Cc1ccccc1N(CC(=O)N1CCOCC1)S(C)(=O)=O,"inconclusive: 3.55 µM [activator, partial curve, poor fit]",
O=C(NN=C1CCCCCC1)c1ccc2c(c1)OCO2,"inconclusive: 10 µM [inhibitor, partial curve, poor fit]",
O=C1CC(N2CCOCC2)C(=O)N1Cc1ccc(N2CCCC2=O)cc1 (stereo unspecified),,inactive: 12.5%
COCc1nn2c(N)c(-c3ccccc3)cnc2c1-c1ccccc1,"inconclusive: 35.5 µM [inhibitor, single point]",
Cc1ccc(S(=O)(=O)N2CCN(S(=O)(=O)c3ccccc3)C2c2ccc(N(C)C)cc2)cc1 (stereo unspecified),,inactive: -5.73%
COc1cccc(/C=N/Nc2ncnc3scc(-c4ccccc4)c23)c1OC,"inconclusive: 0.92 µM [inhibitor, full curve, poor fit]",
O=S(=O)(NCCSCc1ccc(Cl)c(Cl)c1)c1ccc2c(c1)OCCO2,"inconclusive: 0.291 µM [activator, partial curve, poor fit]",
O=C(Nc1cccc(S(=O)(=O)N2CCOCC2)c1)c1ccc2c(=O)n3c(nc2c1)CCCCC3,"inconclusive: 10 µM [inhibitor, partial curve, poor fit]",
Cc1ccc(Cn2nnc3c(=O)n(CC(=O)NCc4ccco4)cnc32)cc1,"inconclusive: 14.1 µM [inhibitor, partial curve]",
CC/C(O)=C1\C(=O)CC(C)(C)CC1=NCCc1nc2ccccc2[nH]1,"inconclusive: 35.5 µM [inhibitor, single point]",
O=S(=O)(c1ccccc1)N1CCNCC1,,inactive: -2.44%
CCC(CC)C(=O)Nc1nnc(S(=O)(=O)N(C)c2cc(C)cc(C)c2)s1,"inconclusive: 11.2 µM [inhibitor, single point]",
Cc1cc(C(=O)NC2CC(C)(C)Cc3c2cnn3-c2ccccc2C)c(C)o1 (stereo unspecified),"inconclusive: 4.47 µM [inhibitor, full curve, poor fit]",
COc1ccc(C(=O)c2ccccc2)c(O)c1,,inactive: 9.54%
O=C(Nc1ccc2c(c1)Cc1ccccc1-2)c1cccnc1,"inconclusive: 2.59 µM [activator, single point]",
CC1(C)CC(=O)C(C=NCCN2CCN(C(=O)Cc3ccc(Cl)cc3)CC2)=C(O)C1,,inactive: -4.88%

SMILES,Potency,"activity change, negative = inhibition"
CSc1sc(C(=O)NCC2CC2)cc1S(=O)(=O)C(C)C,"inconclusive: 20 µM [inhibitor, single point]",
CC(=O)NC(CC(=O)NC12CC3CC(CC(C3)C1)C2)c1ccccc1 (stereo unspecified),"inconclusive: 12.6 µM [activator, partial curve, poor fit]",
CCOc1ccc(C2C(=O)N(C3CCCCCC3)CC(=O)N2Cc2ccc(C)cc2)cc1OC (stereo unspecified),"inconclusive: 1.26 µM [inhibitor, full curve, poor fit]",
Cc1cccc(N(CC(=O)NCCc2ccccc2)S(=O)(=O)c2ccccc2)c1C,"inconclusive: 35.5 µM [inhibitor, single point]",
O=C(NCCc1ccccc1)C(=O)NCC1(c2ccccc2)CCCC1,,inactive: 0.808%
CN(C)c1nc(-c2ccc([N+](=O)[O-])cc2)cs1,,inactive: -8.27%
COc1cccc(OC)c1C(=O)Nc1ccc(-c2nc3ncccc3o2)cc1,,inactive: -9.61% [at 46.1 µM]
O=C(O)c1nn(CCOc2cccc(Cl)c2)c(=O)c2ccccc12,,inactive: 1.55% [at 46.1 µM]
Cc1ccc(-c2cc(C(=O)NCc3ccco3)c3ccccc3n2)s1,,inactive: -18.1%
Cc1ncc(N=Nc2ccccc2Cl)c(-c2ccccc2)n1,,inactive: 0.594%
CCCCC(=O)Nc1ccccc1C#N,"inconclusive: 1.46 µM [inhibitor, partial curve, poor fit]",
CCn1c(Cc2ccc(OC)cc2)nnc1SCC(=O)NC1CCCCC1,"inconclusive: 0.366 µM [activator, partial curve]",
Cc1sc2ncnc(NCCN3CCOCC3)c2c1C,,inactive: -28.8%
O=C(NN=C1CCCCCC1)c1cc(-c2ccccc2)nc2ccccc12,"inconclusive: 10 µM [inhibitor, partial curve]",
COc1ccc(S(=O)(=O)CCc2nnc(NC(=O)c3cccs3)s2)cc1,,inactive: 13.6%
Cc1nc(-c2ccc3c(c2)OCCCO3)cs1,"inconclusive: 0.562 µM [activator, single point]",
Cc1sc2ncnc(N3CCN(CCOc4ccc(Cl)cc4)CC3)c2c1C,"inconclusive: 9.2 µM [inhibitor, partial curve, poor fit]",
CN(C)S(=O)(=O)Oc1ccccc1C(=O)Nc1ccccc1Cl,"inconclusive: 35.5 µM [inhibitor, single point]",
O=C(CCc1ccc(CCC(=O)c2cccs2)s1)c1cccs1,"inconclusive: 12.6 µM [inhibitor, single point]",
CCOC(=O)c1ccc(OS(=O)(=O)c2ccccc2)c(OC)c1,"inconclusive: 11.2 µM [inhibitor, single point]",
COc1ccc(C2CC2/C(C)=N/OC(=O)C2CC2)cc1 (stereo unspecified),"inconclusive: 0.562 µM [inhibitor, full curve, poor fit]",
Cc1ccc2c(c1)N(CC(=O)Nc1ccccc1C(F)(F)F)C(=O)c1cccnc1O2,,inactive: 9.15% [at 46.1 µM]
COc1ccc(Cn2ccnc2SCC(=O)Nc2ccc3c(c2)OCCO3)cc1,,inactive: -14.4% [at 46.1 µM]

# 4 entries drawn at random from those above, as already listed:
SMILES,Potency,"activity change, negative = inhibition"
COc1cccc(OC)c1C(=O)Nc1ccc(-c2nc3ncccc3o2)cc1,,inactive: -9.61% [at 46.1 µM]
COc1ccc(Cn2ccnc2SCC(=O)Nc2ccc3c(c2)OCCO3)cc1,,inactive: -14.4% [at 46.1 µM]
COc1ccc(S(=O)(=O)CCc2nnc(NC(=O)c3cccs3)s2)cc1,,inactive: 13.6%
O=C(NN=C1CCCCCC1)c1cc(-c2ccccc2)nc2ccccc12,"inconclusive: 10 µM [inhibitor, partial curve]",
